In article PMC4176176, “The CRISPR-associated Cas4 protein Pcal_0546 from Pyrobaculum calidifontis contains a [2Fe-2S] cluster: crystal structure and nuclease activity” (Nucleic Acids Research, 2014):
These are yes or no findings as the source states them, for the method shown.

Target: Cas4 protein Pcal_0546 from Pyrobaculum calidifontis (Pyrobaculum calidifontis) (UniProt A3MTK6)
Test: SEC; size-exclusion chromatography of the purified protein on a Superdex S200 10/300 GL column; both purified

- binding: no binding
B1: Cas4 protein Pcal_0546 from Pyrobaculum calidifontis (enzyme, UniProt A3MTK6 1-213)
chain: MELLSPKPLCSVVNCEDLEKLDHVSALNELRREQEIFKLLPGIYAHRYDFRRVSPSIINDFEYCPRLLWVQHKLGLKLLSEKSVVSIIRGRILHERYERLLSQYENVVAEYKVEIGDLVGVVDLVIKRGGEYIPVEIKTGFSKEAHKTQLQIYISMLKARFGYLVYRNHVEVVHRNDAALDVLKKIREILSAREAPPAKCNSCIFKPICKNLL
